{"sequences": {"note": "Amino acid sequences for entries named in this document (tags omitted).", "UniProt P09429": "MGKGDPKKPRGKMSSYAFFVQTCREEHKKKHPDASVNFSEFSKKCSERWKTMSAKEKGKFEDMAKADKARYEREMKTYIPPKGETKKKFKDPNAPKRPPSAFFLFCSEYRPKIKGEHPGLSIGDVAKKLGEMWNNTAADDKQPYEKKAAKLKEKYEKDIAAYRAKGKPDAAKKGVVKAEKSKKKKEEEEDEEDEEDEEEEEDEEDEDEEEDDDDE", "UniProt P51532": "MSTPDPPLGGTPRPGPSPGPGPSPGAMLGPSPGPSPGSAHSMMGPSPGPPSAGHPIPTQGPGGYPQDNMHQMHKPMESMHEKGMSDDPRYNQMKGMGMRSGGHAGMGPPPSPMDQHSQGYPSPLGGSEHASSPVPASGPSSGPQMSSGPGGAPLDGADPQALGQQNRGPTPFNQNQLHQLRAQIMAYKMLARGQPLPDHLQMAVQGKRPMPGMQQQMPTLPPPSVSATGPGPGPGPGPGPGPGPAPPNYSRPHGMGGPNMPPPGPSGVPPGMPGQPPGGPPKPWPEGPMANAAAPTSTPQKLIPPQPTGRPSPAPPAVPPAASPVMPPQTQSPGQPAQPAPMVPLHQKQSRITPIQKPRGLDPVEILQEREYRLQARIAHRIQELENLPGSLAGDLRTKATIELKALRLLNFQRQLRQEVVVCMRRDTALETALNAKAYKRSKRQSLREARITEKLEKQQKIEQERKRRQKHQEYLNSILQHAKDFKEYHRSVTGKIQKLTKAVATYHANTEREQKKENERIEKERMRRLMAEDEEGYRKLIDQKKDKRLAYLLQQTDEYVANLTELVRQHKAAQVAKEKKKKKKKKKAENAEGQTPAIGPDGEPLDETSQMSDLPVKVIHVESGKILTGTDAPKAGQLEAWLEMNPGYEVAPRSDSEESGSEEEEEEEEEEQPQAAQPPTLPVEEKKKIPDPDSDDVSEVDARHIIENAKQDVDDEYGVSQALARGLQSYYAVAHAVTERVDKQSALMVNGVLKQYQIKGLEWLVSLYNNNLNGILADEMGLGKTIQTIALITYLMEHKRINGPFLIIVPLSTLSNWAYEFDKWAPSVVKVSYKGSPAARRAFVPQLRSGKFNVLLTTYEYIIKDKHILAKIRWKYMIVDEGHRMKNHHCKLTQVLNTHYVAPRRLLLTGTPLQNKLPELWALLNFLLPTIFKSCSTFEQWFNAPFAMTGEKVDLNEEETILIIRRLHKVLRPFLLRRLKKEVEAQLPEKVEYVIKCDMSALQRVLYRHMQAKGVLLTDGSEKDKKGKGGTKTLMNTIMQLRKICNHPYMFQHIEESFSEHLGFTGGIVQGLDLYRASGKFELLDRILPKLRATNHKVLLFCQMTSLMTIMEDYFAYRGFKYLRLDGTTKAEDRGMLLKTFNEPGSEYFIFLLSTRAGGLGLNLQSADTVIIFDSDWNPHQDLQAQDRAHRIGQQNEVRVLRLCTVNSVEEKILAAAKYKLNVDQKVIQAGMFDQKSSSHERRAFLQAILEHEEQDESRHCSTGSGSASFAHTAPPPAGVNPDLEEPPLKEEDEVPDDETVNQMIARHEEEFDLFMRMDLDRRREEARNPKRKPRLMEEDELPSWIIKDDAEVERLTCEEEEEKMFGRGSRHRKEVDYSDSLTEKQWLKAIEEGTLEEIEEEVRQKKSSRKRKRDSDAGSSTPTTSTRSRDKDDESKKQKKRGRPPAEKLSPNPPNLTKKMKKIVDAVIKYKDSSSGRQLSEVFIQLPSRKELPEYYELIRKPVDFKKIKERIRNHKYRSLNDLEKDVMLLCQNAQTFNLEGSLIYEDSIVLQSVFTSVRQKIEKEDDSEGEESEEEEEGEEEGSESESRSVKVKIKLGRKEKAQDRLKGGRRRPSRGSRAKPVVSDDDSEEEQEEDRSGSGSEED"}, "source": "paper PMC6691575", "key": {"[1]": {"target": "high-mobility group box 1 (HMGB1) (human (endogenous in PC-3 and LNCaP)) (UniProt P09429)", "assay": "co-IP; PC-3 and LNCaP cell lysates, pre-cleared with A/G beads, 5 ug control IgG, HMGB1 or BRG1 antibody overnight at 4 °C, A/G beads 6 h, washed with ice-cold PBS with 0.2% NP-40, immunoblot with anti-HMGB1 and anti-BRG1; endogenous proteins, both orientations"}, "[2]": {"target": "Brahma-related gene 1 (BRG1, also known as SMARCA4) (human (endogenous in PC-3 and LNCaP)) (UniProt P51532)", "assay": "co-IP; PC-3 and LNCaP cell lysates, pre-cleared with A/G beads, 5 ug control IgG, HMGB1 or BRG1 antibody overnight at 4 °C, A/G beads 6 h, washed with ice-cold PBS with 0.2% NP-40, immunoblot with anti-HMGB1 and anti-BRG1; endogenous proteins, both orientations"}}, "note": "No constants are given. Whether binding was seen depends on the method and setting. In cells and extracts the contact can be indirect. Some entries that bind do so weakly or less than the wild type."}
{"substance": "Brahma-related gene 1 (BRG1, also known as SMARCA4) (from UniProt P51532 1-1647)", "values": [{"measurement": "binding", "setting": "[1]", "value": "binds"}]}
{"substance": "high-mobility group box 1 (HMGB1) (from UniProt P09429 1-215)", "values": [{"measurement": "binding", "setting": "[2]", "value": "binds"}]}
